Source: publication PMC11698047
Results are given in words; binding and its absence hold for the method and conditions named. For some assays here: Sequences can lack the tags named with a protein. Blank lines part the entries; values can stand above or below the binder they belong to.

Columns and labels:
[1] = molecular target: Drosophila melanogaster Canoe RA1 domain (amino acids 1-137, including the αN helix) (Drosophila melanogaster) (UniProt Q24279); test: SEC-MALS; 100 µl of individual proteins (200 µM) or RA domain-Rap1G12V-GMPPNP complexes (200 µM complex) on Superdex 200, 0.5 ml/min, buffer C (25 mM HEPES-NaOH pH 7.5, 100 mM NaCl, 5 mM MgCl2, 0.1% β-ME) with 0.2 g/l sodium azide; in duplicate; both purified
[2] = molecular target: Drosophila melanogaster Canoe RA2 domain (amino acids 222-350, including the αN helix), with His-tag (Drosophila melanogaster) (UniProt Q24279); test: as above

binding [1]: no binding (tested: 200 µM)
B1: Drosophila melanogaster Canoe RA1 domain (amino acids 1-137, including the αN helix) (domain or fragment, UniProt Q24279 1-137)
chain: MSHDKKMLDREAVRSVIQQWNANRLDLFALSEPDENLLFHGVMRFYFQDAGQKVATKCIRVASDATVTDVIDTLIEKFRPDMRMLSVPNYALYEVHANGEERRLNADEKPLLVQLNWHIDDREGRFLLKNIDQKTTP

binding [2]: no binding (tested: 200 µM)
B2: Drosophila melanogaster Canoe RA2 domain (amino acids 222-350, including the αN helix), with His-tag (domain or fragment, UniProt Q24279 222-350)
chain: TRSISNPEAVMRRRRQQKLEKKLQQFRSRDGGPDTGGTLKIYGESLCQDVPYKTLLLSIRDCAQAVVREMLTKYGLEKADPLHYCLVQVNSDGTEYILDDDECPLSILMNHPTSRGSIMFHVRRRPADS
